Our source for the binding values is article doi:10.1101/384354.

Chains of the proteins cited; added tags and fusions are not shown.
UniProt Q9CWH6: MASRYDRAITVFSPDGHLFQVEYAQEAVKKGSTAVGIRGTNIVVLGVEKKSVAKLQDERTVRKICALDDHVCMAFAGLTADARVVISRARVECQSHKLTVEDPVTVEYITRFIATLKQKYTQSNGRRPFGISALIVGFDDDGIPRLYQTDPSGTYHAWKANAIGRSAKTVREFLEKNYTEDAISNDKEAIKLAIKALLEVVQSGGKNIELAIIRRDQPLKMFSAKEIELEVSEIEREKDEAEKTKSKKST
UniProt P11440: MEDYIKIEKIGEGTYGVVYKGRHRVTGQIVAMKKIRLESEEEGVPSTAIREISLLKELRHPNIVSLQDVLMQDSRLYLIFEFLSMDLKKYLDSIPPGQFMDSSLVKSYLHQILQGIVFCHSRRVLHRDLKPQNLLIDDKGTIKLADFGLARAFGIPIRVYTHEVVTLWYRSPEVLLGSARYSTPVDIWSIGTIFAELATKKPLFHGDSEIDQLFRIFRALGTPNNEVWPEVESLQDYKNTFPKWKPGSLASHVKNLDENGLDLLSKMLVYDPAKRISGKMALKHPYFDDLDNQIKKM
UniProt P17156: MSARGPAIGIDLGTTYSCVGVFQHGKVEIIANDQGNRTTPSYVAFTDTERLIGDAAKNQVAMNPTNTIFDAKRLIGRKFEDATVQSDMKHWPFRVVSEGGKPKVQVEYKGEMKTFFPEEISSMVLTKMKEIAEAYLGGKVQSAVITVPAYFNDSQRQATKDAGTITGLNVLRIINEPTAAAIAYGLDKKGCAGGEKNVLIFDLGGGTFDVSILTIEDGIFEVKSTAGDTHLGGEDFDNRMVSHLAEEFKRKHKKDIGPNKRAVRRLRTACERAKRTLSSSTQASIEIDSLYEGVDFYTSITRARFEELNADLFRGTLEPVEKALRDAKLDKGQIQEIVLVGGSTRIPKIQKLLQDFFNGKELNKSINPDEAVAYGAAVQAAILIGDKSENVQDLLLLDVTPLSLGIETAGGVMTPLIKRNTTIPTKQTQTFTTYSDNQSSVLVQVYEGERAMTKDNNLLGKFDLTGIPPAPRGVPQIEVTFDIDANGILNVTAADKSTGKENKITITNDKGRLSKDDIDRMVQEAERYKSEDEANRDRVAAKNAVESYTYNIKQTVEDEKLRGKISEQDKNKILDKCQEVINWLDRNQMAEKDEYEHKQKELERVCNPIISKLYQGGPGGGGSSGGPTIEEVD
UniProt P46935: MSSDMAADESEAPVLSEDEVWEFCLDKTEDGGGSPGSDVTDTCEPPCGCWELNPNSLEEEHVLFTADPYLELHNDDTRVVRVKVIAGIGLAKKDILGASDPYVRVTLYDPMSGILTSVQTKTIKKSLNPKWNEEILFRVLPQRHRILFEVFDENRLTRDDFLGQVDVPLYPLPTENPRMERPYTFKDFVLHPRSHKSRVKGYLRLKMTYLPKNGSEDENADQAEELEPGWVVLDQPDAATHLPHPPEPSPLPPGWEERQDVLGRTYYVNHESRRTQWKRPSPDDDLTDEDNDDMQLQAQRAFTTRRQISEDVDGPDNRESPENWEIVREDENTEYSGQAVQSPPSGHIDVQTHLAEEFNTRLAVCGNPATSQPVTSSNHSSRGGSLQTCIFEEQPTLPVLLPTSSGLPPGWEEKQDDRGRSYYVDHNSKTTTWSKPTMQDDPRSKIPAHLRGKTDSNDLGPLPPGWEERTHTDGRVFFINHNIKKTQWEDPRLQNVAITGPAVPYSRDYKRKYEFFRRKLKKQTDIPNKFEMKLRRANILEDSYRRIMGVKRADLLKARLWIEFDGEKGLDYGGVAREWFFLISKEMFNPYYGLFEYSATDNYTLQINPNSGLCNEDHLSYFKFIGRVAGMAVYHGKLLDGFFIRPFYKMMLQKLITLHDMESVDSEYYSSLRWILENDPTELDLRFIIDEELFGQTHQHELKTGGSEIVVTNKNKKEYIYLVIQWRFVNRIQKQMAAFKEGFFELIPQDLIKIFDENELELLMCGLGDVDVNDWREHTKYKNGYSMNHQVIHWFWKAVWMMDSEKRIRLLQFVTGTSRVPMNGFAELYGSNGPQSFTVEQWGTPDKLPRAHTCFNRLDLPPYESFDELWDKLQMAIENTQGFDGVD
UniProt P97372: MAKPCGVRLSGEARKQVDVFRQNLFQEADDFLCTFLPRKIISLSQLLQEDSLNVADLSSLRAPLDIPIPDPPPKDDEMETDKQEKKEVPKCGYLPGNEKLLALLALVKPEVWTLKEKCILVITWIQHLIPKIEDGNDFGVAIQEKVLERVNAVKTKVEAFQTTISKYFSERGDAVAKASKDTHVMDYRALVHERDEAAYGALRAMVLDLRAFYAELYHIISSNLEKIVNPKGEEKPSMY
UniProt Q99MV7: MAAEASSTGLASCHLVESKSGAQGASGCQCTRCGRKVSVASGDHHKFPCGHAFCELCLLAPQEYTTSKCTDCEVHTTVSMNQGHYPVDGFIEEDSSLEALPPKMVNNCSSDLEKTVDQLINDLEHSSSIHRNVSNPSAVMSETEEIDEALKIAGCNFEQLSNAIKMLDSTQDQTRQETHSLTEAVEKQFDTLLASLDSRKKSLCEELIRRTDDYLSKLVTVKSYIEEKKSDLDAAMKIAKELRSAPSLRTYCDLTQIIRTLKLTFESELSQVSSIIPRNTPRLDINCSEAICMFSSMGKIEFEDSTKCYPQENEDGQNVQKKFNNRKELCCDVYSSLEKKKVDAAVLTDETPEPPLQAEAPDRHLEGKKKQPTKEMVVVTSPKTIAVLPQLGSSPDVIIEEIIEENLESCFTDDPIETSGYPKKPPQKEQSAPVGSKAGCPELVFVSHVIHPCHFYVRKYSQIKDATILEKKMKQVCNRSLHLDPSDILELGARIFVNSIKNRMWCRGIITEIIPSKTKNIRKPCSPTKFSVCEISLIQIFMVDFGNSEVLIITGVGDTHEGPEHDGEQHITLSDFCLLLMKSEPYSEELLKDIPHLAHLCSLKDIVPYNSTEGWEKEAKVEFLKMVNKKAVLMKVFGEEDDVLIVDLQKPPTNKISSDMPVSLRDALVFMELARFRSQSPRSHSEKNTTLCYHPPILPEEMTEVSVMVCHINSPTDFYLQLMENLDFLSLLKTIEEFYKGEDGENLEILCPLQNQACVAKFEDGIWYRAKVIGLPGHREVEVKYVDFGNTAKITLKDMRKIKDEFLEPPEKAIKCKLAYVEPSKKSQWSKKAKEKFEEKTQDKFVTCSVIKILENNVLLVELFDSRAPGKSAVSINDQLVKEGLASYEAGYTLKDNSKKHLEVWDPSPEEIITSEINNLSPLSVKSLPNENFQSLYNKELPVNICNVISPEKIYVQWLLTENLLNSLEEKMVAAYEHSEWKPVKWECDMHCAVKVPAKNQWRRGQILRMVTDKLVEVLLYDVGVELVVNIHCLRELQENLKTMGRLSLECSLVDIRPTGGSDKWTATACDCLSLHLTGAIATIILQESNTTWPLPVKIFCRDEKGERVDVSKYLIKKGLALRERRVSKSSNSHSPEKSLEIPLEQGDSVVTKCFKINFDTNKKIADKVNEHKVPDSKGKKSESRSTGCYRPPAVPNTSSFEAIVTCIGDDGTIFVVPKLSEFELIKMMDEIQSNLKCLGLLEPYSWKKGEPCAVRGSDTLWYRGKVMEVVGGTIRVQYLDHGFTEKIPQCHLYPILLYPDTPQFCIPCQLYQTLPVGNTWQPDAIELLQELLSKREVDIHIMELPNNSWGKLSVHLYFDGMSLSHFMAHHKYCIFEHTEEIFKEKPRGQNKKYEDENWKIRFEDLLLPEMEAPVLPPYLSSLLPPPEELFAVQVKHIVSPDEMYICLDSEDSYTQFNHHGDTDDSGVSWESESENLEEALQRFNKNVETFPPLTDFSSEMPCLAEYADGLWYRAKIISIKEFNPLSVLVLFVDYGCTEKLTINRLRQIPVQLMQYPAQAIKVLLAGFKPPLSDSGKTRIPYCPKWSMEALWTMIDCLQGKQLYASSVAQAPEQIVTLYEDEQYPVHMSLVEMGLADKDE
UniProt P70398: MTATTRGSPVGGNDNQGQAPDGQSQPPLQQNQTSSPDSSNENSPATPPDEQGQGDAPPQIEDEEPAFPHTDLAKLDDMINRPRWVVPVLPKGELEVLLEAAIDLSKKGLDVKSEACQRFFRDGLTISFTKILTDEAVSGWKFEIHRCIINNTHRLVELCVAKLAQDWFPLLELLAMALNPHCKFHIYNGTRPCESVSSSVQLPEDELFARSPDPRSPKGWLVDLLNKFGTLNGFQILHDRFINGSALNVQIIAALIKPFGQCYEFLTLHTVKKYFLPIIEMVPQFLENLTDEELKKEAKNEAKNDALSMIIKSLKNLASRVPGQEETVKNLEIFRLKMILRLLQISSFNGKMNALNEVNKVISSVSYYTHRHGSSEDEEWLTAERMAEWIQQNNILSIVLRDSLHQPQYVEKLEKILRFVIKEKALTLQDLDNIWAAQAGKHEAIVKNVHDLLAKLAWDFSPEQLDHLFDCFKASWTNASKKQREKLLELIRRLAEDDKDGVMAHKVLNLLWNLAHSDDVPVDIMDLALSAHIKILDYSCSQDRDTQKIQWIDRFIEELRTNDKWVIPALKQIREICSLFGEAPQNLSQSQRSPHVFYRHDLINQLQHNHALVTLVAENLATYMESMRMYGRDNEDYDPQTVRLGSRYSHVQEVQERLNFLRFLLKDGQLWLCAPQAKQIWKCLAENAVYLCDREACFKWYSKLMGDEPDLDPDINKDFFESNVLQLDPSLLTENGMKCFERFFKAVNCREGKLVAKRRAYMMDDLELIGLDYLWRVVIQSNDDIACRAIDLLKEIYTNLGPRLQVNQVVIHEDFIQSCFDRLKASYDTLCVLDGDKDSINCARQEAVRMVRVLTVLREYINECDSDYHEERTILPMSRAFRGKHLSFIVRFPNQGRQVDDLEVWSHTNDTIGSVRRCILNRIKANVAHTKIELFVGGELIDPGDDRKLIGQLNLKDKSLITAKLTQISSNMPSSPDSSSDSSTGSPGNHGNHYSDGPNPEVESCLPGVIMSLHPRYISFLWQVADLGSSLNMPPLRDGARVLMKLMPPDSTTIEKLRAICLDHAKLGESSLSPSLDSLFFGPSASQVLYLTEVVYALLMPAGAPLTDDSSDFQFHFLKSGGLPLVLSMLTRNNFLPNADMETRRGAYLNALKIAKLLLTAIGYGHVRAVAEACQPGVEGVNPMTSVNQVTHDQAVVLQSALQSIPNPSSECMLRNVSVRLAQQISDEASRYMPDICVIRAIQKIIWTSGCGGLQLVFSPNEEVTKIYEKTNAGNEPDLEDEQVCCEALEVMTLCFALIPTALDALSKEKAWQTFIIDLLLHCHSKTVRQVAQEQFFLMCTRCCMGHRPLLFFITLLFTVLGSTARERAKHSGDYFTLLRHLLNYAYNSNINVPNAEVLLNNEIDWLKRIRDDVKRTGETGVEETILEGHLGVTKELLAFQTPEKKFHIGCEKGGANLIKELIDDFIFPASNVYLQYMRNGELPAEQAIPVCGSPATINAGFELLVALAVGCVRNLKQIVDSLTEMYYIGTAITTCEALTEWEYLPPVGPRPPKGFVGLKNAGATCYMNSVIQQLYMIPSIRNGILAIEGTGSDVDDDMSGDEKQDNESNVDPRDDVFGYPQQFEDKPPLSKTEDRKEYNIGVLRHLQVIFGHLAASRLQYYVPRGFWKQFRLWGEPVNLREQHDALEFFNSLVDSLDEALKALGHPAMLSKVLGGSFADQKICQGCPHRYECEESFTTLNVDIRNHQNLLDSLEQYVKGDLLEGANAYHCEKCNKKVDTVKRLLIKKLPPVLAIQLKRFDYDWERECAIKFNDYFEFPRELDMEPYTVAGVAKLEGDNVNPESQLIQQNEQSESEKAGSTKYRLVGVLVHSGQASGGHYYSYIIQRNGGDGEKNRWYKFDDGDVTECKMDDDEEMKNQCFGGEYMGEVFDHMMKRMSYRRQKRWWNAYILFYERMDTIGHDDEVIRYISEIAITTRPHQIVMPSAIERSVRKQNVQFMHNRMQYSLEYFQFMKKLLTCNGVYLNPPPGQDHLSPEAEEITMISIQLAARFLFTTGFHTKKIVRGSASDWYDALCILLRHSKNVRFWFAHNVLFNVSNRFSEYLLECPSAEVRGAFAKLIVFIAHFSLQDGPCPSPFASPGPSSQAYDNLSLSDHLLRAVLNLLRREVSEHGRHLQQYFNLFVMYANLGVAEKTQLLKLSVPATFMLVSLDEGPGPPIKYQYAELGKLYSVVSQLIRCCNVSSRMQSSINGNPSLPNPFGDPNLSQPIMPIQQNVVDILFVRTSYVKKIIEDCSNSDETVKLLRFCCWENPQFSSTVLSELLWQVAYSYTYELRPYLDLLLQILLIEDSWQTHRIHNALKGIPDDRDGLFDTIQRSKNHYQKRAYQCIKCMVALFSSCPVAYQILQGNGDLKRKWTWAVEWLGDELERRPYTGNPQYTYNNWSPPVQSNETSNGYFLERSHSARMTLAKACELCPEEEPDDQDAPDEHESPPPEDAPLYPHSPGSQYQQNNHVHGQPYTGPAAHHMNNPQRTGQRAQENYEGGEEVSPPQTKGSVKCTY

Results are given in words; binding and its absence hold for the method and conditions named. In cells and extracts the contact can be indirect. Here binding means that the protein was enriched with, or labelled near, the bait; the list need not be complete. A no says only that the protein was not detected with the bait.

The test concerns the target PSMA8 (testis-specific α4s subunit of the spermatoproteasome) (mouse (endogenous in testis)) (UniProt Q9CWH6). The experiment in a line: affinity purification with mass spectrometry.

For CCT6b (from UniProt Q61390 1-531), the binding result is listed as “binds”.

“CDK1 (cyclin dependent kinase 1) (endogenous) (from UniProt P11440 1-297) (enzyme)”: the binding result is recorded as “binds”.

For the molecule HSP70a2 (from UniProt P17156 1-633), the binding result was “binds”.

Take “NEDD4 (from UniProt P46935 1-887) (enzyme)”: the binding result is listed as “binds”.

On to “PA28β (PSME2) (from UniProt P97372 1-239)”, for which the binding entry was “no binding”.

On to “RAD18 (from UniProt Q9QXK2 1-509) (enzyme)”, for which the binding entry is given as “binds”.

For RNF17 (from UniProt Q99MV7 1-1640), the binding result is reported as “binds”.

With SMC4 (from UniProt Q8CG47 1-1286), the binding entry is “binds”.

Turning to TDRD6 (from UniProt P61407 1-2134), the binding result is given as “binds”.

Consider “TRIP12 (from UniProt G5E870 1-2025) (enzyme)”, for which the binding result was “binds”.

Consider “USP5 (from UniProt P56399 1-858) (enzyme)”, for which the binding result is “binds”.

Take “USP9X (from UniProt P70398 1-2559) (enzyme)”: the binding result is “binds”.

Turning to “USP14 (from UniProt Q9JMA1 1-493) (enzyme)”, the binding entry was “binds”.

In the case of “USP34 (from UniProt Q6ZQ93 1-3582) (enzyme)”, the binding result was “binds”.

B1: SYCP1 (endogenous) (protein, UniProt Q62209 1-993)
chain: MEKQKPFTLFVPPRLSSSQVSAVKPQTAGGDSNYFKTANKCTEGDFGVPFTMSSRENIDKDPAFQKLSILPMLEQVANSGSCHYQEGVNDSDFENSEPMSRLYSKLYKEAEKIKKWKVSIESELKQKENKLQENRKIIEAQRKAIQELQFENEKVSLKLEEEIQENKDLIKENNATIHWCNLLKETCARSAEKTNKYEYEREETRQVYVDLNSNIEKMILAFEELRVQAENARLEMHFKLKEDHEKIQHLEEEYQKEVNNKENQVSELLIQSAEKENKMKDLTFLLEESRDKANQLEEKTKLQDENLKELSEKKDHLTSELEDIKMSMQRSMSTQKALEEDLQIATKTISQLTEVKEAQMEELNKAKTTHSFVVTELKATTCTLEELLRTEQQRLEKNEDQLKLITVELQKKSNELEEMTKFKNNKEVELEELKNILAEDQKLLDEKKQVEKLAEELQEKEQELTFLLETREKEVHDLQEQVTVTKTSEQHYLKQVEEMKTELEKEKLKNTELTASCDMLLLENKKFVQEASDMALELKKHQEDIINCKKQEERLLKQIENLEEKEMHLRDELESVRKEFIQQGDEVKCKLDKSEENARSIECEVLKKEKQMKILESKCNNLKKQVENKSKNIEELHQENKTLKKKSSAEIKQLNAYEIKVSKLELELESTKQRFEEMTNNYQKEIENKKISEGKLLGEVEKAKATVDEAVKLQKEIDLRCQHKIAEMVALMEKHKHQYDKIVEERDSELGLYKNREQEQSSAKIALETELSNIRNELVSLKKQLEIEKEEKEKLKMAKENTAILKDKKDKKIQASLLESPEATSWKFDSKTTPSQNISRLSSSMDSGKSKDNRDNLRASAKSILPTTVTKEYTVKTPTKKSIYQRENKYIPTGGSNKKRKTAFEFDVNSDSSETADLLSLVSEEDVSNRLYDNNPPDSHLLVKTPKQTPLSLSTPASFMKFGSLKKMREDRWTTIAKIDRKRRLKEAEKLFS
For B1, the binding entry is given as “binds”.

B2: SMC6 (protein, UniProt Q924W5 1-1097)
chain: MAKRKEENFCSPENAKRPRQEELEDFDKDGDEDECTISFTNGTSTLTAAEVGIIESIQLRNFMCHSMLGPFKFGSNVNFVVGNNGSGKSAVLTALIVGLGGKAVATNRGSSLKGFVKAGQNSADISITLRNRGDDAFRANVYGDSIVVQQHISVDGSRSYKLKSEKGTVVSTRKEELIAILDHFNIQVDNPVSVLTQEMSKQFLQSKNEGDKYKFFMKATQLEQMKEDYSYIMETKERTKEQINQGEERLTELKRQCLEKEERFQNIAGLSTMKTNLEYLKHEMAWAVVNEIEKQLNAIRDNIKIGEERAAKLDRKMEEQQVRLNDAEKKYKDIQDKLEKISEETNARAPECMALKTDVIARTRAFNDAEVLYNRSLNEYKALKKDGEQLCKRIEELKKSTDQSLEPERLERQKRICWLKEKVKALQDQEHTVNQEAEQFEQAIEKDKQEHGRVRKEDIEVRHALNYNQRQLKELKDSKTDRLKRFGPHVPALLEAIDDAYRRRQFTHKPIGPLGACIHLRDPELALAIESCLKGLLQAYCCHNHADERVLQSLMKKFYPPGTSRPQIIVSEFRDEVYDVRLRAAYHPEFPTVLTALEIDNAVVANSLIDMRSIETVLLIKNNSVARAVMQSQKPPKNCREAFTADGDQVFAGRYYSSESTRPKFLSRDVDSEISDLETEIENKKGHIITLQQRLSALEKDIKRNEELLKRCQLHYKEIKMKIRKNISEIRELENIEEHQSVDIATLEDEAEENKIKMQMVEKNMEQQKENMENLKSLKIEAENKYDTIKLKINQLSELADPLKDELNLADSEVDSQKRGKQHYEDKQKEHLDTLNKKRRELDMKEKELQEKMSQARQICPERIEVKKSASILDKEINRLRQKIQAEHASHGDREEIMKQYQEARETYLDLDNKVRTLRRFIKLLEEIMTHRYKTYQQFRRCLTLRCKLYFDNLLSQRAYCGKMNFDHKNETLSITVQPGEGNKASFNDMRALSGGERSFSTVCFILSLWSIAESPFRCLDEFDVYMDMVNRRIAMDMILKMADSQRFRQFILLTPQSMSSLPSSKLIRILRMSDPERGQTTLPFRPVTQEEDDSAS
With B2, the binding entry is given as “binds”.

B3: CCT2 (protein, UniProt P80314 1-535)
chain: MASLSLAPVNIFKAGADEERAETARLSSFIGAIAIGDLVKSTLGPKGMDKILLSSGRDAALMVTNDGATILKNIGVDNPAAKVLVDMSRVQDDEVGDGTTSVTVLAAELLREAESLIAKKIHPQTIISGWREATKAAREALLSSAVDHGSDEARFWQDLMNIAGTTLSSKLLTHHKDHFTKLAVEAVLRLKGSGNLEAIHVIKKLGGSLADSYLDEGFLLDKKIGVNQPKRIENAKILIANTGMDTDKIKIFGSRVRVDSTAKVAEIEHAEKEKMKEKVERILKHGINCFINRQLIYNYPEQLFGAAGVMAIEHADFAGVERLALVTGGEIASTFDHPELVKLGSCKLIEEVMIGEDKLIHFSGVALGEACTIVLRGATQQILDEAERSLHDALCVLAQTVKDPRTVYGGGCSEMLMAHAVTQLANRTPGKEAVAMESFAKALRMLPTIIADNAGYDSADLVAQLRAAHSEGHITAGLDMKEGTIGDMAVLGITESFQVKRQVLLSAAEAAEVILRVDNIIKAAPRKRVPDHHPC
On to B3, for which the binding entry is “binds”.

B4: TRIP13 (endogenous) (protein, UniProt Q3UA06 1-432)
chain: MDEAVGDLKQALPCVAESPAVHVEVLQRSGSTAKKEDIKSSVYRLLNRHNIVFGDYVWTEFDDPFLSRNVQSVSIVDTELKAKDPQPIDLSACTIALHIFQLNEEGPSSENLDEETENIIAASHWVLPAAEFHGLWDSLVYDVEVKSHLLDYVMTTVLFSDKNVDSNLITWNRVVLLHGPPGTGKTSLCKALAQKLTIRLSSRYRYGQLIEINSHSLFSKWFSESGKLVTKMFQKIQDLIDDKEALVFVLIDEVESLTAARNACRAGAEPSDAIRVVNAVLTQIDQIKRHSNVVILTTSNITEKIDVAFVDRADIKQYIGPPSAAAIFKIYLSCLEELMKCQIIYPRQQLLTLRELEMIGFIENNVSKLSLLLSEISRKSEGLSGRVLRKLPFLAHALYIQAPSVTIEGFLQALSLAVDKQFEEKKKLSAYV
On to B4, for which the binding result is given as “binds”.

B5: USP47 (enzyme, UniProt Q8BY87 1-1376)
chain: MVPGEENQLVPKEDVFWRCRQNIFDEMKKKFLQIENAAEEPRVLCIIQDTTNSKTVSERITLNLPASTPVRKLFEDVANKVGYINGTFDLTRENGVTTADMAPLDHTSDKSLLDANFEPGKKNFLHLTDKDGEPPQMLLEDSNNVDDSVHDRFIGPLPREGSVASTNDYVSQNYSYSSILNKSETGYVGLVNQAMTCYLNSLLQTLFMTPEFRNALYKWEFEDSEEDPVTSIPYQLQRLFVLLQTSKKRAIETTDVTRSFGWDSSEAWQQHDVQELCRVMFDALEQKWKQTEQADLINELYQGKLKDYVRCLECGYEGWRIDTYLDIPLVIRPYGSSQAFASVEEALHAFIQPEILDGPNQYFCERCKKKCDARKGLRFLHFPYLLTLQLKRFDFDYTTMHRIKLNDRMSFPEELDMSTFIDIEDEKSPQTESCTDSGAENEGSCHSDQMSNDFSTDDAVDEGICLESSSGSEKISKPGLEKNSLMYELFSVMVHSGSAAGGHYYACIKSFSDDQWYSFNDQHVSRITQEDIKKTHGGSSGSRGYYSSAFASSTNAYMLIYRLKDPTRNAKFLEVDEYPEHIKNLVQKERELEEQEKRQREIERNTCKIKLFCLHPVKQVMMENKLEVHKDKTLKEAVEMAYKMMDLEDVIPLDCCRLVKYDEFHDYLERSYEGEEDTPMGLLLGGVKSTYMFDLLLETRKPDQIFQSYKPGEVMVKVHVVDLKAETVAAPVTVRAYLNQTVTEFKQLISKATHLPADSMRIVLERCYNDLRLLSMPSKTLKAEGFFRSNKVFVESSETVDHQAAFTDSHLWKLLDRHANTIRLFVLLPEQSPGSYSKRTAYQKAGGDSGNVDDDCERVKGPAGNLKSVDAILEESTEKLKSLSLQQQQQDGDNGDSSKSTETSDFENIESPLNERGSSTSVDNRELEQHIQTSDPENFQSEERSDSDVNNDRSTSSVDSDILSSSHSSDTLCNADSAQIPLANGLDSHSITSSRRTKANEGKKETWDTAEEDSGTDSEYDESGKSRGDMQYMYFKADPYTADEGSGEGHKWLMVHVDKRITLAAFKQHLEPFVGVLSSHFKVFRVYTSNQEFETVRLNETLSSFSDDNKITIRLGRALKKGEYRVKVCQLLVNEQEPCKFLLDAVFAKGMTVRQSKEELIPQLREQCGLDLSIDRFRLRKKTWKNPGTVFLDYHIYEEDINISSNWEVFLEVLDGVEKMKSMSQLAILTRRWRPAEMKLDPFQELVLESNSVDELREKLSEISGIPLEDIEFAKGRGTFPCDISVLDIHQDLDWNPKVSTLNVWPLYICDDGAVIFYRDRTEEVMELTDEQRNELMKKESSRLQKTGHRVTYSPRKEKALKIYLDGAPNKDVAQD
Turning to B5, the binding result is recorded as “binds”.

B6: TRIM36 (enzyme, UniProt Q80WG7 1-729)
chain: MSESEEISEFGYIMELLAKGKVTIKNIEKELICPACKELFTHPLILPCQHSVCHKCVKELLLSLDDSFNDVASDSSNQSSPRLRLTSPSMDKIDKINRPGWKRNSLTPRPTTFPCPGCEHDVDLGERGVSGLFRNFTLETIVERYRQAARAATAIMCDLCKPPPQESTKSCMDCSASYCNECFKIYHPWGTVKAQHEYVGPTTNFRPKVLMCPEHETERINMYCELCRRPVCHLCKLGGNHSNHRVTTMSSAYKTLKEKLSKDIDFLIGKESQVKSQISELNLLMKETECNGERAKEEALAHFEKLFEILEDRKSSVLKAIDASKKLRLDKFHTQMEEYQGLLENNGLVGYAQEVLKETDQSCFVQTAKQLHLRIQKATESLKSFRPAAQASFEDYVVNISKQTEVLGELSFFSSGIDIPEINEEQSKVYNNALIDWHHPEKDKADSYVLEYRKINRDEEMISWNEIEVHGTSKVVSNLESNSPYAFRVRAYRGSICSPCSRELILHTPPAPVFSFLFDEKCGYNTEHLLLNLKRDRVESRAGFNVLLAAERIQVGHYTSLDYIIGDVGVTKGKHFWACRVEPYSYLVKVGVASSDKLQEWLRSPRDAASPRYEQDSGHDSGSEDACFDSSQPFTLVTIGMKKFFIPKSPTSSNEPENRVLPMPTSIGIFLDCDKGKVSFYDMDHMKCLYERQVDCSHTMYPAFALMGSGGIQLEEAITAKYLEYEEDV
Turning to B6, the binding result is listed as “binds”.
